Source: PubChem BioAssay AID248 (DTP/NCI, 2004)
The list does not hold the whole screen: it gathers tests that were run many times, whatever their T/C, doses with no T/C, and many T/C values between a quarter and a half above the control. Other doses and runs of a compound stand elsewhere. T/C gives the treated animals as a percentage of the vehicle group. Some entries give survivors of the animals treated and no T/C: the source holds a T/C of zero for them, seemingly a mark for toxic or unscored doses. Some survivor counts are full or nearly so, which does not show that the dose was tolerated: the source hardly ever lists a survival T/C far under the control, and the zero likely stands for such cases as well. Counts of survivors are from the toxicity check (mostly the fifth day) where no day follows; animals may have died later. Schedule codes are those of the source, read here as Q, the interval in days (D) or hours (H), X, the number of doses. Some schedules carry Z or #; the key to these is not given. For survival time, the PubChem record calls one and a half times the control and up active, and a quarter to a half above the control has no call in these data; cut-offs in other NCI protocols can differ. Signs of the kind (2×) give the number of equal values in this list. Some entries were tested several times; the values are given in rising order. Some T/C values are followed by the survivors on the day toxicity was checked, most often the fifth; where none is given, no animal had died by that day.

Test system: L1210 leukemia ip in BDF1 mice, survival T/C
Assay: NCI In Vivo Anticancer Drug Screen. Data for tumor model L1210 Leukemia (intraperitoneal) in B6D2F1 (BDF1) mice
Conditions: higher T/C = longer survival

For `O=c1[nH]c(=O)n(C2CC(O)C(CO)O2)cc1F` (stereo not given), the T/C (T/C endpoint: mean survival time, dose: 120.0 mg/kg/injection, schedule: Q01DX009 (ip), vehicle: saline, evaluated on day 60) was 149 % of control, the T/C (T/C endpoint: mean survival time, dose: 120.0 mg/kg/injection, schedule: Q## X009 (ip), vehicle: saline) was 149 % of control and the T/C (T/C endpoint: mean survival time, dose: 134.0 mg/kg/injection, schedule: Q02DX010 (ip), vehicle: carboxymethylcellulose (CMC)) was 149 % of control. For the same compound, the T/C (T/C endpoint: mean survival time, dose: 141.0 mg/kg/injection, schedule: Q02DX008 (ip), vehicle: saline) was 137 % of control, the T/C (T/C endpoint: mean survival time, dose: 141.0 mg/kg/injection, schedule: Q02DX008 (ip), vehicle: water) was 147 % of control and the T/C (T/C endpoint: mean survival time, dose: 142.0 mg/kg/injection, schedule: Q04DX002 (ip), vehicle: saline) was 101, 113, 118, 119 % of control. The T/C (T/C endpoint: mean survival time, dose: 144.0 mg/kg/injection, schedule: Q01DX009 (ip), vehicle: saline) was 130 and 131 % of control, the T/C (T/C endpoint: mean survival time, dose: 150.0 mg/kg/injection, schedule: Q03DX006 (ip), vehicle: saline) was 142 % of control and the T/C (T/C endpoint: mean survival time, dose: 160.0 mg/kg/injection, schedule: Q01DX009 (ip), vehicle: saline) was 135 % of control. For the same compound, the T/C (T/C endpoint: mean survival time, dose: 160.0 mg/kg/injection, schedule: Q01DX015 (ip), vehicle: saline) was 125 % of control, the T/C (T/C endpoint: mean survival time, dose: 160.0 mg/kg/injection, schedule: Q01DX Z (ip), vehicle: other) was 125 and 132 % of control and the T/C (T/C endpoint: mean survival time, dose: 175.0 mg/kg/injection, schedule: Q07DX003 (ip), vehicle: saline) was 128 % of control. The T/C (T/C endpoint: mean survival time, dose: 176.0 mg/kg/injection, schedule: Q## X032 (ip), vehicle: saline) was 139 % of control, the T/C (T/C endpoint: mean survival time, dose: 180.0 mg/kg/injection, schedule: Q01DX009 (ip), vehicle: saline) was 126 % of control and the T/C (T/C endpoint: mean survival time, dose: 180.0 mg/kg/injection, schedule: Q## X009 (ip), vehicle: saline) was 126 % of control. For the same compound, the T/C (T/C endpoint: mean survival time, dose: 188.0 mg/kg/injection, schedule: Q04DX003 (ip), vehicle: saline) was 145 % of control, the survivor count (T/C endpoint: mean survival time, dose: 200.0 mg/kg/injection, schedule: Q01DX Z (oral), vehicle: saline) was 6 of 6 and the T/C (T/C endpoint: mean survival time, dose: 200.0 mg/kg/injection, schedule: Q04DX003 (ip), vehicle: saline) was 134 % of control. For the same compound, the T/C (T/C endpoint: mean survival time, dose: 200.0 mg/kg/injection, schedule: Q04DX005 (ip), vehicle: saline) was 127 % of control, the T/C (T/C endpoint: mean survival time, dose: 200.0 mg/kg/injection, schedule: Q## X004 (ip), vehicle: saline) was 148 % of control and the T/C (T/C endpoint: mean survival time, dose: 270.0 mg/kg/injection, schedule: Q## X032 (ip), vehicle: water) was 132 [9 of 10 alive] and 138 % of control. The T/C (T/C endpoint: mean survival time, dose: 284.0 mg/kg/injection, schedule: Q04DX002 (ip), vehicle: saline) was 115, 135, 142, 151 % of control, the T/C (T/C endpoint: mean survival time, dose: 300.0 mg/kg/injection, schedule: Q02DX010 (ip), vehicle: carboxymethylcellulose (CMC)) was 145 % of control and the T/C (T/C endpoint: mean survival time, dose: 317.0 mg/kg/injection, schedule: Q02DX008 (ip), vehicle: saline) was 140 % of control. For the same compound, the T/C (T/C endpoint: mean survival time, dose: 335.0 mg/kg/injection, schedule: Q01DX001 (ip), vehicle: saline) was 135 % of control, the T/C (T/C endpoint: mean survival time, dose: 335.0 mg/kg/injection, schedule: Q01DX001 (ip), vehicle: water) was 126 % of control and the T/C (T/C endpoint: mean survival time, dose: 350.0 mg/kg/injection, schedule: Q07DX003 (ip), vehicle: saline) was 133 and 143 % of control. For the same compound, the T/C (T/C endpoint: mean survival time, dose: 400.0 mg/kg/injection, schedule: Q01DX001 (ip), vehicle: saline) was 130 % of control, the T/C (T/C endpoint: mean survival time, dose: 400.0 mg/kg/injection, schedule: Q01DX001 (ip), vehicle: water) was 126 % of control and the T/C (T/C endpoint: mean survival time, dose: 500.0 mg/kg/injection, schedule: Q01DX001 (ip), vehicle: saline, evaluated on day 30) was 122 and 136 % of control. The T/C (T/C endpoint: mean survival time, dose: 500.0 mg/kg/injection, schedule: Q01DX001 (ip), vehicle: saline, evaluated on day 46) was 156 % of control, the T/C (T/C endpoint: mean survival time, dose: 500.0 mg/kg/injection, schedule: Q01DX001 (ip), vehicle: saline, run until all animals had died) was 135 and 151 % of control and the T/C (T/C endpoint: mean survival time, dose: 500.0 mg/kg/injection, schedule: Q01DX001 (ip), vehicle: water) was 138 % of control. The T/C (T/C endpoint: mean survival time, dose: 543.0 mg/kg/injection, schedule: Q01DX001 (ip), vehicle: saline) was 131 % of control, the T/C (T/C endpoint: mean survival time, dose: 568.0 mg/kg/injection, schedule: Q04DX002 (ip), vehicle: saline) was 119, 125, 137, 147 % of control and the survivor count (T/C endpoint: mean survival time, dose: 600.0 mg/kg/injection, schedule: Q03DX006 (ip), vehicle: saline) was 6 of 6. The T/C (T/C endpoint: mean survival time, dose: 625.0 mg/kg/injection, schedule: Q01DX001 (ip), vehicle: saline) was 138 % of control (2×), the T/C (T/C endpoint: mean survival time, dose: 675.0 mg/kg/injection, schedule: Q## X004 (ip), vehicle: saline) was 126 % of control and the T/C (T/C endpoint: mean survival time, dose: 750.0 mg/kg/injection, schedule: Q01DX001 (ip), vehicle: saline) was 135 % of control. For the same compound, the T/C (T/C endpoint: mean survival time, dose: 800.0 mg/kg/injection, schedule: Q01DX001 (ip), vehicle: saline) was 142 % of control, the survivor count (T/C endpoint: mean survival time, dose: 800.0 mg/kg/injection, schedule: Q01DX005 (ip), vehicle: saline) was 10 of 10 and the T/C (T/C endpoint: mean survival time, dose: 896.0 mg/kg/injection, schedule: Q## X032 (ip), vehicle: saline) was 126 % of control. The T/C (T/C endpoint: mean survival time, dose: 1000.0 mg/kg/injection, schedule: Q01DX001 (ip), vehicle: saline, evaluated on day 30) was 117 and 152 % of control, the T/C (T/C endpoint: mean survival time, dose: 1000.0 mg/kg/injection, schedule: Q01DX001 (ip), vehicle: saline, evaluated on day 46) was 170 % of control and the T/C (T/C endpoint: mean survival time, dose: 1000.0 mg/kg/injection, schedule: Q01DX001 (ip), vehicle: saline, run until all animals had died) was 88 and 151 % of control. The survivor count (T/C endpoint: mean survival time, dose: 1280.0 mg/kg/injection, schedule: Q01DX009 (oral), vehicle: saline) was 6 of 6, the T/C (T/C endpoint: median survival time, dose: 40.0 mg/kg/injection, schedule: Q01DX009 (ip), vehicle: saline) was 130 and 146 % of control and the T/C (T/C endpoint: median survival time, dose: 80.0 mg/kg/injection, schedule: Q01DX009 (ip), vehicle: saline) was 145 % of control. The T/C (T/C endpoint: median survival time, dose: 160.0 mg/kg/injection, schedule: Q01DX009 (ip), vehicle: saline) was 133 % of control and the survivor count (T/C endpoint: median survival time, dose: 320.0 mg/kg/injection, schedule: Q01DX009 (ip), vehicle: saline) was 6 of 6.
